Laboratory results from patent publication US20130116291A1, “ASSOCIATION OF XANTHINE OXIDASE INHIBITORS AND STATINS AND USE THEREOF” (Menarini International Operations Luxembourg S.A., priority 2010, published 2013).

Tested on: Wistar rats subjected to a cholesterol-rich (2%) diet
Experiment: Hypocholesterolemic activity in rats on a cholesterol-rich diet (plasma total cholesterol)
Format: in vivo, rat
Conditions: 2.5 mg/Kg orally by gavage once per day for 4 weeks
Procedure: Plasma levels of total cholesterol were measured with a standard colorimetric enzymatic method. […] Plasma levels of total cholesterol were determined at one-week intervals. Blood was collected from a tail vein.

SMILES: CC(C)c1c(C(=O)Nc2ccccc2)c(-c2ccccc2)c(-c2ccc(F)cc2)n1CC[C@@H](O)C[C@@H](O)CC(=O)O [Atorvastatin, atorvastatin]
- Diminution of plasma total cholesterol in rats: 25%
